Literature values as cited in patent US20220304303A1, “INSECT REPELLENT PATCHES” (The Natural Patch Company Pty Ltd, priority 2021, published 2022).
At least one structure is not confirmed: it was looked up by name or label, or the drawing left a doubt.

Tested on: insect bites
Settings: 100% DEET

CCN(CC)C(=O)c1cccc(C)c1 [DEET, Diethyltoluamide]
hours of protection against insect bites: up to 12 hours
